Source: PubChem BioAssay AID1259425 (University of Nebraska Medical Center, 2018)
Test: 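Seek colon cancer weak points whose silencing resembles KSR1 loss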 (primary screen). System: HCT116 human colon cancer cells. Reagent: siRNA pool against human genes, 50 nM siRNA. Measurement: 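mRNA of six signature genes measured together by branched-DNA assay after 50 nM siRNA pool, blank removed, divided by geometric mean of two housekeeping genes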. Reading the numbers: BNIP3L mRNA: higher = more BNIP3L transcript after knockdown.
Here is a random part of about 14,000 reagents tested. Not all columns of the deposit are shown. The record does not give: the time to read-out.

BNIP3L mRNA, set 1 | target
0.0584 | ST6GAL2
0.0988 | RYBP
0.156 | JPH1
0.193 | SLC38A1
0.0592 | CAPZA2
0.036 | ZDHHC17
0.801 | TRMT61B
0.0589 | CHMP3
0.0946 | NR2F1
0.126 | DPM1
0.228 | VAMP1
0.082 | SERPINB1
0.0755 | CAPN7
0.123 | THOC3
0.0689 | HTR3C
0.0837 | APOO
0.0979 | HNRNPC
0.107 | TBR1
0.278 | KIAA1328
0.132 | IRX5
0.127 | IMPG2
0.157 | ARSA
0.115 | SHC3
0.0984 | TKTL1
0.119 | AK4
0.0517 | RPS3
0.0827 | HEATR5B
0.113 | TPM3
0.0872 | STK17A
0.0901 | ACOT13
0.263 | TSPYL1
0.0323 | SLC67A1-AS
0.131 | COX5A
0.083 | CCL26
0.169 | CEACAM6
0.107 | PEG3
0.0583 | TGFBRAP1
0.0734 | ZNF365
0.161 | TMEM257 (retired record)
0.312 | FOXRED2
0.202 | KRTAP5-8
0.0815 | ACVR2B
0.153 | MVK
0.127 | TRO
0.126 | MEF2A
0.0715 | RAD1
0.0575 | WASF3
0.118 | FCGR2A
0.197 | RAB24
0.175 | MCHR1
0.0749 | LGR6
0.163 | TNKS2
0.0321 | CLPP
0.088 | TNIK
0.0266 | NPHP3
0.0549 | HPS4
0.0909 | PNKP
0.135 | RAD9A
0.141 | HERC3
0.218 | GALNT14
0.0817 | HMGN3
0.0628 | SPN
0.082 | RNASE1
